Laboratory results: PubChem BioAssay AID1259291 (Sanger Institute, 2017)

Test: 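Find kinase and colorectal-cancer-mutated genes whose loss kills HT29 cells or aids anchor drugs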 (primary screen)
Cells: HT29 human colorectal cancer cells
Reagent: siRNA pool against human genes
Treatment: anchor drugs added a day after transfection: BYL719 at 1 µM, cetuximab at 5 µg/ml or trametinib at 10 nM, or DMSO vehicle alone
Read-out: 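Replicate-averaged viability relative to non-targeting pool, robust z-score based on control wells, plus per-drug synergy score for 1 µM BYL719, 5 µg/ml cetuximab and 10 nM trametinib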
Reading the numbers: robust z-score, knock-down alone: higher = more viable cells
Active means: 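a knock-down alone scoring under -3 on robust z-score is called essential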
Calls: active = essential (knock-down alone); inactive = no change alone
The deposit covers 794 reagents; this is an unselected part. Of all reagents, 15 (1.9%) got an active call. 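Calls rest on knock-down alone; drug synergy scores do not affect them; drugs added a day post-transfection, DMSO vehicle as comparison.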 Entries without a mark were called inactive. Not all columns of the deposit are shown. Not given: the amount of reagent, the time to read-out.

Gene	robust z-score, knock-down alone
NPR2 (natriuretic peptide receptor 2)	0.552
MAP4K5 (mitogen-activated protein kinase kinase kinase kinase 5)	0.552
RIPK2 (receptor interacting serine/threonine kinase 2)	0.552
PANK2 (pantothenate kinase 2)	0.552
DNMT3A (DNA methyltransferase 3 alpha)	0.552
GATA3 (GATA binding protein 3)	0.339
GK2 (glycerol kinase 2)	0.552
DAPK2 (death associated protein kinase 2)	0.552
NEK10 (NIMA related kinase 10)	-1.56
TESK2 (testis associated actin remodelling kinase 2)	0.552
PIK3C3 (phosphatidylinositol 3-kinase catalytic subunit type 3)	0.552
MELK (maternal embryonic leucine zipper kinase)	0.552
FYN (FYN proto-oncogene, Src family tyrosine kinase)	0.552
SMAD2 (SMAD family member 2)	0.552
APC (APC regulator of Wnt signaling pathway)	0.552
MST1R (macrophage stimulating 1 receptor)	0.552
CSNK1A1L (casein kinase 1 alpha 1 like)	0.552
NME2 (NME/NM23 nucleoside diphosphate kinase 2)	0.552
EIF2AK2 (eukaryotic translation initiation factor 2 alpha kinase 2)	-0.17
MASTL (microtubule associated serine/threonine kinase like)	0.552
